# Test results from the supplement of paper PMC9744312.
# Counter-ions that a name gives are not always drawn. The list shows a part of the results. This is a noisy data set.
# Tested on: Peyronie's disease tunica albuginea primary fibroblasts
# Test: inhibition of TGF-beta1-induced alpha-SMA expression (myofibroblast transformation), relative to TGF-beta1-only and untreated controls; higher = stronger inhibition of myofibroblast transformation
# Details: 10 µM; TGF-beta1 10 ng/mL; 72 h
row,SMILES,inhibition of TGF-beta1-induced alpha-SMA expression
1,O=C(O)/C=C/C(=O)O [Fumaric acid],14.7%
2,O=C(CCCN1CCC(O)(c2ccc(Cl)cc2)CC1)c1ccc(F)cc1 [Haloperidol],20.3%
3,NCC(=O)CCC(=O)O [5-Aminolevulinic acid HCl],-10.4%
4,Cc1ccc(Sc2ccccc2N2CCNCC2)c(C)c1 [Vortioxetine],> 100%
5,Cc1ccc(Sc2ccccc2N2CCNCC2)c(C)c1,> 100%
6,O=C(O)c1ccc(-n2nc(-c3ccccc3O)nc2-c2ccccc2O)cc1 [Deferasirox],39.9%
7,CC(C)C[C@H](NC(=O)CNC(=O)[C@H](Cc1ccc(O)cc1)NC(=O)[C@H](CO)NC(=O)[C@H](Cc1c[nH]c2ccccc12)NC(=O)[C@H](Cc1cnc[nH]1)NC(=O)[C@@H]1CCC(=O)N1)C(=O)N[C@@H](CCCNC(=N)N)C(=O)N1CCC[C@H]1C(=O)NCC(N)=O [Gonadorelin Acetate],16.2%
8,COC(=O)CCc1ccc(OCC(O)CNC(C)C)cc1 (stereo not drawn) [Esmolol HCl],-19.9%
9,COc1c(C)c2c(c(O)c1C/C=C(\C)CCC(=O)OCCN1CCOCC1)C(=O)OC2 [Mycophenolate Mofetil],12.4%
10,CN1C(C(=O)Nc2ccccn2)=C(O)c2ccccc2S1(=O)=O [Piroxicam],22.9%
11,NCCS [Cysteamine HCl],-16.9%
12,COCCOC(=O)C1=C(C)NC(C)=C(C(=O)OC(C)C)C1c1cccc([N+](=O)[O-])c1 (stereo not drawn) [Nimodipine],23.6%
13,CC1(C)[C@@H](O)CC[C@]2(C)[C@H]3C(=O)C=C4[C@@H]5C[C@@](C)(C(=O)O)CC[C@]5(C)CC[C@@]4(C)[C@]3(C)CC[C@@H]12 [Enoxolone],7.54%
14,O=C(O)c1ccc(NC(=O)[C@H](Cc2ccc(O)cc2)NC(=O)c2ccccc2)cc1 [Bentiromide],15%
15,c1cc(CN2CCCNCCNCCCNCC2)ccc1CN1CCCNCCNCCCNCC1 [Plerixafor (AMD3100)],10.8%
16,c1cc(CN2CCCNCCNCCCNCC2)ccc1CN1CCCNCCNCCCNCC1 [Plerixafor 8HCl (AMD3100 8HCl)],3.64%
17,COc1ccc2c3c1O[C@H]1C[C@@H](O)C=C[C@@]31CCN(C)C2 [Galanthamine HBr],-9.48%
18,CC1(C)S[C@@H]2[C@H](NC(=O)COc3ccccc3)C(=O)N2[C@H]1C(=O)O [Penicillin V potassium salt],0.304%
19,Cc1cc(C#N)cc(C)c1Oc1nc(Nc2ccc(C#N)cc2)nc(N)c1Br [Etravirine (TMC125)],39.1%
20,Cc1nnc(SCC2=C(C(=O)O)N3C(=O)[C@@H](NC(=O)Cn4cnnn4)[C@H]3SC2)s1 [Cefazolin Sodium],-9.51%
21,O=c1[nH]c(=O)n([C@H]2C[C@H](O)[C@@H](CO)O2)cc1C(F)(F)F [Trifluridine],-6.83%
22,S=c1[nH]cnc2nc[nH]c12 [Mercaptopurine (6-MP)],-5.49%
23,Cc1ccccc1C(=O)Nc1ccc(C(=O)N2CCCC(N(C)C)c3ccccc32)cc1 (stereo not drawn) [Mozavaptan],37.6%

# No new results follow: entries from further up.
row,SMILES,inhibition of TGF-beta1-induced alpha-SMA expression
7,CC(C)C[C@H](NC(=O)CNC(=O)[C@H](Cc1ccc(O)cc1)NC(=O)[C@H](CO)NC(=O)[C@H](Cc1c[nH]c2ccccc12)NC(=O)[C@H](Cc1cnc[nH]1)NC(=O)[C@@H]1CCC(=O)N1)C(=O)N[C@@H](CCCNC(=N)N)C(=O)N1CCC[C@H]1C(=O)NCC(N)=O [Gonadorelin Acetate],16.2%
8,COC(=O)CCc1ccc(OCC(O)CNC(C)C)cc1 (stereo not drawn) [Esmolol HCl],-19.9%

# Additional records

row,SMILES,inhibition of TGF-beta1-induced alpha-SMA expression
1,CN(Cc1ccc(C(C)(C)C)cc1)Cc1cccc2ccccc12 [Butenafine HCl],10.7%
2,O=C1N=C(O)NC1(c1ccccc1)c1ccccc1 [Phenytoin Sodium],3%
3,CC1(C)O[C@@H]2[C@@H](CO[C@@]3(COS(N)(=O)=O)OC(C)(C)O[C@@H]23)O1 [Topiramate],71.5%
4,COc1cc(NS(=O)(=O)c2ccc(N)cc2)nc(OC)n1 [Sulphadimethoxine],32.8%
5,CCNC(=O)[C@@H]1CCCN1C(=O)[C@H](CCCNC(=N)N)NC(=O)[C@H](CC(C)C)NC(=O)[C@@H](CC(C)C)NC(=O)[C@H](Cc1ccc(O)cc1)NC(=O)[C@H](CO)NC(=O)[C@H](Cc1c[nH]c2ccccc12)NC(=O)[C@H](Cc1c[nH]cn1)NC(=O)[C@@H]1CCC(=O)N1 [Leuprolide Acetate],40.9%
6,CCNC(=O)[C@@H]1CCCN1C(=O)[C@H](CCCNC(=N)N)NC(=O)[C@H](CC(C)C)NC(=O)[C@@H](CC(C)C)NC(=O)[C@H](Cc1ccc(O)cc1)NC(=O)[C@H](CO)NC(=O)[C@H](Cc1c[nH]c2ccccc12)NC(=O)[C@H](Cc1c[nH]cn1)NC(=O)[C@@H]1CCC(=O)N1 [Leuprorelin Acetate],7.9%
7,CN(C)c1cc(NC(=O)CNC(C)(C)C)c(O)c2c1C[C@H]1C[C@H]3[C@H](N(C)C)C(O)=C(C(N)=O)C(=O)[C@@]3(O)C(O)=C1C2=O [Tigecycline],-8.63%
8,Cn1nnc(-c2ccc(-c3ccc(N4C[C@H](CO)OC4=O)cc3F)cn2)n1 [Tedizolid],18.2%
9,Cc1cccc(Nc2ccncc2S(=O)(=O)NC(=O)NC(C)C)c1 [Torsemide],9.49%
10,NC1=NCC2c3ccccc3Cc3ccccc3N12 (stereo not drawn) [Epinastine HCl],> 100%
11,NC(=O)N1c2ccccc2CC(=O)c2ccccc21 [Oxcarbazepine],11.9%
12,CC(C)Cn1cnc2c(N)nc3ccccc3c21 [Imiquimod],19%
13,CC(C)(C)NCC(O)COc1cccc2c1CC(O)C(O)C2 (stereo not drawn) [Nadolol],17%
14,Nc1ccccc1NC(=O)c1ccc(CNc2nccc(-c3cccnc3)n2)cc1 [Mocetinostat (MGCD0103)],73.5%
15,CC(C)CCCCC(=O)N[C@@H](CCN)C(=O)N[C@H](C(=O)N[C@@H](CCN)C(=O)N[C@H]1CCNC(=O)[C@H]([C@@H](C)O)NC(=O)[C@H](CCN)NC(=O)[C@H](CCN)NC(=O)[C@H](CC(C)C)NC(=O)[C@@H](Cc2ccccc2)NC(=O)[C@H](CCN)NC1=O)[C@@H](C)O [Polymyxin B sulphate],52.7%
16,CCOCCn1c(N2CCCN(C)CC2)nc2ccccc21 [Emedastine Difumarate],16.2%
17,CCOCCn1c(N2CCCN(C)CC2)nc2ccccc21 [Emedastine],8.78%
18,Cc1cccn2c(=O)c(-c3nnn[nH]3)cnc12 [Pemirolast potassium],26.9%
19,CC[C@H](C)C(=O)O[C@H]1C[C@H](O)C=C2C=C[C@H](C)[C@H](CC[C@@H](O)C[C@@H](O)CC(=O)O)[C@H]21 [Pravastatin sodium],9.37%
20,CC1=C(C(=O)O)N2C(=O)[C@@H](NC(=O)[C@H](N)c3ccccc3)[C@H]2SC1 [Cephalexin],-2.37%
21,Cc1nccn1CC1CCc2c(c3ccccc3n2C)C1=O (stereo not drawn) [Ondansetron HCl],15.7%
22,Cc1nccn1CC1CCc2c(c3ccccc3n2C)C1=O (stereo not drawn) [Ondansetron Hydrochloride Dihydrate],4.67%
23,CC(=O)NC[C@H]1CN(c2ccc(N3CCOCC3)c(F)c2)C(=O)O1 [Linezolid],18.6%

row,SMILES,inhibition of TGF-beta1-induced alpha-SMA expression
1,COc1ccc2c(c1)c(CC(=O)OCC(=O)O)c(C)n2C(=O)c1ccc(Cl)cc1 [Acemetacin],7.04%
2,"COc1cc2c(cc1Cc1cccc(Cl)c1F)c(=O)c(C(=O)O)cn2[C@H](CO)C(C)C [Elvitegravir (GS-9137, JTK-303)]",39.8%
3,COc1ccc2cc3[n+](cc2c1OC)CCc1cc2c(cc1-3)OCO2 [Berberine Sulfate],34.4%
4,COc1ccc2cc3[n+](cc2c1OC)CCc1cc2c(cc1-3)OCO2 [Berberine chloride],27.9%
5,Cc1cc(Nc2cc(CN3CCOCC3)c3nc(C)c(Cc4ccc(Cl)cc4F)n3n2)n[nH]1,92.3%
6,CCOC(=O)N[C@@H]1CC[C@@H]2[C@@H](C1)C[C@H]1C(=O)O[C@H](C)[C@H]1[C@H]2/C=C/c1ccc(-c2cccc(F)c2)cn1 [Vorapaxar],-35.2%
7,Nc1nnc(-c2cccc(Cl)c2Cl)c(N)n1 [Lamotrigine],-1.86%
8,CC[C@@]1(O)C(=O)OCc2c1cc1n(c2=O)Cc2cc3c(CN(C)C)c(O)ccc3nc2-1 [Topotecan HCl],> 100%
9,Nc1nc(=O)[nH]cc1F [Flucytosine],10.1%
10,CN(C)C(=O)c1cc2cnc(Nc3ccc(N4CCNCC4)cn3)nc2n1C1CCCC1 [Ribociclib (LEE011)],22.5%
11,CC(=O)O[C@]1(C(C)=O)CC[C@H]2[C@@H]3C=C(C)C4=CC(=O)CC[C@]4(C)[C@H]3CC[C@@]21C [Megestrol Acetate],53.7%
12,C=C1[C@H](CO)[C@@H](O)C[C@@H]1n1cnc2c(=O)[nH]c(N)nc21 [Entecavir Hydrate],23.9%
13,C=C1[C@H](CO)[C@@H](O)C[C@@H]1n1cnc2c(=O)[nH]c(N)nc21 [Entecavir],-5.49%
14,CC/C=C(\C(=O)N[C@@H]1C(=O)N2C(C(=O)OCOC(=O)C(C)(C)C)=C(COC(N)=O)CS[C@H]12)c1csc(N)n1 [Cefcapene Pivoxil Hydrochloride],-1.1%
15,CC(=O)[O-].[K+] [Potassium acetate],-28.1%
16,Cc1ccc(C(C)C)c(O)c1 [Thymol],39%
17,C#CC1(O)CC[C@H]2[C@@H]3CCC4=CC(=O)CC[C@@H]4[C@H]3CC[C@@]21CC (stereo partly drawn) [Norgestrel],34.7%
18,N[C@@H](CC(=O)N1CCn2c(nnc2C(F)(F)F)C1)Cc1cc(F)c(F)cc1F [Sitagliptin],12%
19,N[C@@H](CC(=O)N1CCn2c(nnc2C(F)(F)F)C1)Cc1cc(F)c(F)cc1F [Sitagliptin phosphate monohydrate],24.5%
20,COc1nc(C)cnc1NS(=O)(=O)c1cccnc1-c1ccc(-c2nnco2)cc1 [Zibotentan (ZD4054)],-12.7%
21,C/C(O)=C(\C#N)C(=O)Nc1ccc(C(F)(F)F)cc1 [Teriflunomide],26.8%
22,C[C@@H]1O[C@@H](OC[C@H]2O[C@@H](Oc3c(-c4ccc(O)c(O)c4)oc4cc(O)cc(O)c4c3=O)[C@H](O)[C@@H](O)[C@@H]2O)[C@H](O)[C@H](O)[C@H]1O [Rutin],4.22%
